# From the supplement of paper PMC3334620
# Whole data set: some 33,000 sequences, median “E-score (-0.5 to 0.5)” near -0.0014, cut for the highest 2% near 0.25. Some of the results follow.
# Molecular target: T1, Cad1 (UniProt P24813)
# T1 sequence: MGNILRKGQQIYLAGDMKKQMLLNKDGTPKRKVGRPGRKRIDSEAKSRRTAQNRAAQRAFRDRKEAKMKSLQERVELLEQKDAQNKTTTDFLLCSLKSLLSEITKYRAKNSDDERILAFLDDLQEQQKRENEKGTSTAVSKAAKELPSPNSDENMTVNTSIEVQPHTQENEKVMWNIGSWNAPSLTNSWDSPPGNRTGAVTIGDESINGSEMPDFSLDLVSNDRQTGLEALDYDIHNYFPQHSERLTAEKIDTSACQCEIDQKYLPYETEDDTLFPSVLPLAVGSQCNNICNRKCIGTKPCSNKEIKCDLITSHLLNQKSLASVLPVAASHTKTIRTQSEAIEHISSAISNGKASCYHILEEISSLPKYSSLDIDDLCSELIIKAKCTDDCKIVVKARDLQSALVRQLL
# Experiment: PBM E-score (8-mer binding enrichment) (E-score (-0.5 to 0.5)); higher = stronger / more preferred TF binding
# Conditions: protein concentration: 100 nM; construct: GST-full length
# Protocol: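 Universal 'all 10-mer' protein binding microarrays (Agilent AMADID 015681) probed with GST-tagged S. cerevisiae TFs (full-length or DBD) made by in vitro transcription/translation (PURExpress), about 100-200 nM. Bound TF was detected with fluorescent anti-GST. Each ungapped 8-mer (which stands for itself and its reverse complement) is scored by the PBM enrichment score (E-score), a modified Wilcoxon-Mann-Whitney statistic from -0.5 to +0.5, computed with the Universal PBM Analysis Suite. Scale: above 0.35 generally sequence-specific binding.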
row,Sequence,PBM E-score
1,GCAGCTAA,0.0749
2,GAAATTAC,0.234
3,CGCAGTAA,0.0873
4,GCATCGTA,-0.0986
5,AGTTCGGG,0.041
6,GCAGTCTA,0.0496
7,GACCACTC,-0.0521
8,AGCTCGCA,0.0143
9,TACGATAA,0.149
10,CAAATTTC,0.201
11,AACTCGCT,0.156
12,ACATACCG,-0.0837
13,AGCATCAT,0.135
14,GCCTGATA,-0.0711
15,AAAGGAAG,-0.0972
16,CTCGCGAA,0.0936
17,CTAGGCAC,-0.0229
18,GTACCTCA,-0.0932
19,GACACGCC,-0.103
20,CTCAGTCA,-0.0763
21,AGCTGGTA,-0.151
22,GGAAATTA,0.208
23,CTGACTGC,-0.0899
24,GTGGAGGA,-0.159
25,ACTAAGGA,0.14

row,Sequence,PBM E-score
1,TACTCAGA,0.105
2,ATTAGAGC,0.041
3,ACATCGAT,0.189
4,CCGTCAAA,-0.0889
5,GATTTGAA,0.16
6,TCGCCCGA,-0.051
7,CGGATAGC,0.0973
8,GAGCCAGA,-0.0362
9,ACAGTCTG,-0.0665
10,GAGAGCCC,-0.458
11,CACTAGCA,-0.122
12,AGATACGA,0.0914
13,ATGGGCTG,-0.0873
14,GTAACGAC,-0.0326
15,CATTCTTC,0.0436
16,TACCAAAA,0.0279
17,CAGCCCAA,-0.114
18,GGCCACGA,0.0126
19,CCCACTGC,-0.0251
20,AGTGGCGG,-0.014
21,CGAACCGA,0.262
22,TAGCTCCA,-0.0928
23,TCGTGCCA,-0.0291
24,TCGGCCAA,0.0664
25,CGAATGGC,0.0635

row,Sequence,PBM E-score
1,CAGGGACG,-0.0337
2,CCACTTTC,0.0286
3,ACAGGCCC,-0.35
4,AACTAAAT,-0.00484
5,AATCACCA,0.17
6,CCTCTTCA,-0.107
7,ATAAGTAA,0.192
8,GTGAGCCA,-0.0702
9,ATAAATAA,0.239
10,CAATGGAA,0.117
11,AACTTGCA,-0.0362
12,GCCCCTGA,-0.0911
13,ACGGTTTG,0.0498
14,CGGGATCC,0.176
15,CCGTGAAA,0.175
16,CTTTACTA,0.213
17,ACATCATA,0.105
18,CCATCCCC,-0.137
19,CACATGCG,0.0999
20,AATTAGCC,0.13
21,AGATTATG,0.101
22,AGCGTGGG,-0.113
23,CCGGTCCC,-0.204
24,ATTACGAG,0.0536
25,CTCTTAGA,0.0333

row,Sequence,PBM E-score
1,TCGTCACA,0.112
2,AGAAAAAC,-0.0294
3,ATCTCTGG,0.0345
4,CGCTGGTC,-0.211
5,AGGTGTAA,-0.0466
6,ATCGCGAT,0.237
7,TGGTGACA,0.0209
8,CCAGACAG,-0.0905
9,GAGGCGGA,-0.168
10,CCAACAGC,-0.0482
11,ATCTGGCG,0.107
12,ACTCGTAA,0.292
13,CCTGTTAG,-0.008
14,CATATATC,0.141
15,AAGTACCC,-0.201
16,AAGGTACT,0.0522
17,ACTATCAC,-0.0123
18,GGGGCCGA,-0.256
19,TAGATCCA,-0.0177
20,CTGTGGCA,-0.0544
21,CATAGTAA,0.141
22,CCTTTGAA,-0.16
23,ACGGGGGC,-0.42
24,CGTGATTC,-0.021
25,TCGCCACA,0.0186

# Reformatted with bars between the fields: part of the list above.
row | Sequence | PBM E-score
12 | ACTCGTAA | 0.292
16 | AAGGTACT | 0.0522

# Following part

row,Sequence,PBM E-score
1,CGCCACAA,0.0423
2,ACTCCCCT,-0.29
3,CAAAGTGC,-0.167
4,GATCCTAC,0.00192
5,CCAACGGC,-0.123
6,CGGCGGTA,0.107
7,GGGAAGGA,-0.153
8,GTTATAGA,0.0936
9,AAAAAATG,0.216
10,ATGGAGCG,0.0392
11,ATCTAACA,0.0581
12,GGAGTCCC,-0.181
13,CCTATACG,-0.244
14,TAGTTCAA,0.0165
15,AGTGGTCG,-0.0799
16,TAGTGAGA,-0.0853
17,AACTCACG,0.108
18,CGTGAATA,0.144
19,GACCTTAC,-0.0272
20,ATTGGCGG,0.00921
21,ACCCCAAG,-0.189
22,ATCGGACA,0.00529
23,CGGAAGCA,0.201
24,CCCGGTGC,-0.223
25,CCCTATAC,-0.0183

row,Sequence,PBM E-score
1,AACGTCCA,0.0376
2,AAGATCTA,-0.171
3,CGGATTAG,0.126
4,TCCGCAAA,0.106
5,GCGGCTGA,-0.0597
6,GCTGGACA,-0.103
7,AAAAAACC,0.0141
8,AGAGCCAA,-0.156
9,TGGGACCA,-0.0597
10,AAGTGCCG,0.0714
11,CTAAGACC,-0.0662
12,CTCCATAA,-0.17
13,AAAACCGG,0.131
14,AGTGCCAC,-0.156
15,AAGCTGGG,-0.2
16,AGATGTCC,-0.0414
17,CAGGAAGC,-0.0352
18,GCGTGCAA,0.001
19,ACTAAATG,0.0542
20,GAGTAAAA,0.0611
21,ACCAAGAC,0.144
22,ATCCGAAA,0.0252
23,GGCAGGAA,-0.0227
24,GTACGGTA,0.0291
25,CATATGAG,0.19

row,Sequence,PBM E-score
1,TAGCCTAA,-0.0715
2,GTAGGGAC,-0.158
3,ACTGGTGC,-0.156
4,GAGGCGGC,-0.051
5,GCCTCCTA,-0.116
6,TCAATTCA,-0.0699
7,GGGCGAGA,-0.202
8,CCCTTCCC,-0.151
9,CGCTGAAA,-0.011
10,AGCTATAT,0.101
11,AGTCTCCC,-0.146
12,AGCGGACG,0.0985
13,CTCTTCGA,-0.055
14,CCGCGAGG,0.0994
15,CCTAGGGA,-0.0777
16,GAGAATGC,0.104
17,CCCCAAGC,0.0235
18,CGGCCGAG,0.0359
19,TCAATAGA,-0.0707
20,ACAACGCC,-0.0203
21,TACATAAA,0.111
22,GAGCGCCC,-0.164

# Quoted from the listing.
# Under PBM E-score, GGGCGAGA is entered as -0.202
# Under PBM E-score, TCAATAGA is entered as -0.0707
# Under PBM E-score, CGGCCGAG is entered as 0.0359
# Under PBM E-score, GAGCGCCC is entered as -0.164
